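Uptake of anthrax lethal toxin into cultured cells, read by FRET (460/530 nm ratio) and reported from the 460 nm channel; the cell line is not named here.
Each compound was tested as a concentration series from about 0.0005 to 40 µM.
The number is the fitted AC50 of the 460 nm signal alone; lower values mean a more potent effect. A falling signal goes with compounds filed as inhibitors or cytotoxic, a rising one with activators or fluorescent compounds (inferred from the filed classes).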

Values are in nM.
Common to all entries: measured here: 460 nm channel.
Part of the compounds only, not a random draw; the main read-out is not listed here.
A potency from a partial, single-point or poor curve is only a rough figure.
The first word of each remark tells which way the curve ran; it can be opposite to the aim of the assay.

structure,AC50 (nM),remark
O=C(c1cnccn1)N1CCC2(CCN(Cc3nccs3)CC2)CC1,631,"falling, full curve"
Brc1cccc(-c2nc(-c3ccncc3)no2)c1,19952,"falling, single point"
CCNc1ncc2nc(CCc3ccccc3)c(=O)n(C[C@H]3CCCO3)c2n1,10000,"rising, partial curve"
CC(C)Cn1c(N)c(C(=O)NCc2cccs2)c2nc3ccccc3nc21,7943,"rising, partial curve"
c1ccc(-c2nnn(CCN3CCCCC3)n2)cc1,5012,"falling, single point"
CCN(CC(=O)Nc1ccc2c(c1)OCCO2)Cc1cc(=O)oc2c(C)c(C)ccc12,7943,"rising, partial curve"
CCOC(=O)c1c(C)oc2cc(Br)c(OC(=O)N3CCOCC3)cc12,12589,"falling, partial curve"
Nc1c(S(=O)(=O)O)cc(Nc2ccc(Nc3nc(Cl)nc(Nc4ccc(S(=O)(=O)O)cc4)n3)c(S(=O)(=O)O)c2)c2c1C(=O)c1ccccc1C2=O,25118,"falling, partial curve"
O=C(NCc1ccc2c(c1)OCO2)c1ccccn1,12589,"falling, single point"
Brc1ccc(-c2noc(COc3ccc4c(c3)CCC4)n2)o1,7943,"falling, partial curve"
CCOc1ccc(-n2ccnc2SCC(=O)Nc2nnc(C)s2)cc1,5012,"falling, single point"
Cc1ccc(O)c(NC(=O)c2cccc(NC(=O)c3ccco3)c2)c1,10000,"falling, partial curve"
O=C(Nc1cccc(NC(=O)c2ccc(-c3cccc(Br)c3)o2)c1)c1ccco1,1585,"falling, partial curve"
Cc1cc(=O)oc2c1ccc1oc(/C(=N/O)c3ccccc3)c(C)c12,15848,"falling, partial curve"
Cn1cc(-c2nc3cnc(N4CCNCC4)nc3n(-c3ccccc3)c2=O)c2ccccc21,12589,"rising, partial curve"
COc1ccc(C2C=C(c3ccc(Br)cc3)Nc3nc(N4C(=O)CCC4=O)nn32)cc1 (stereo not drawn),10000,"rising, partial curve"
c1cc2c(c(NC3=NCCN3)c1)CCCC2,3162,"falling, partial curve"
COc1cccc(Cn2c(=O)c(-c3cccc(C#N)c3)nc3cnc(N4CCN(C)CC4)nc32)c1,3162,"rising, full curve"
COc1ccc(NC(=O)NCCN2CCN(c3cccc(Cl)c3)CC2)cc1,3162,"falling, full curve"
Clc1ccc(Cn2ncc3c(NCc4cccnc4)ncnc32)cc1,25.12,"falling, full curve, poor fit"
Cc1c2ccccc2c(C)c2c1ccc1ccccc12,25118,"rising, partial curve"
O=C(c1ccc2c(c1)OCCO2)C1CCN(S(=O)(=O)c2ccccc2F)CC1,5012,"rising, single point"
O=c1cc(CSc2nnc(-c3cccs3)n2Cc2ccccc2)nc2sc3ccccc3n12,10000,"falling, partial curve"
O=c1cc(-c2ccccc2)nc2nc(CCc3ccccc3)[nH]n12,398.1,"falling, single point"
Cc1cnc(CNc2cc(-c3cccnc3)ncn2)cn1,10000,"rising, partial curve"
CCOC(=O)N1CCC(NS(=O)(=O)c2cc(Br)cc3c2N(C(=O)CC)CC3)CC1,19952,"rising, single point"
CC(C)(C)NS(=O)(=O)c1ccc(CCC(=O)O)cc1,15848,"rising, single point"
CCCCc1ccc(NC(=O)C2CCN(S(C)(=O)=O)CC2)cc1,12589,"rising, partial curve, poor fit"
O=S1(=O)OC(c2ccc(O)cc2)(c2ccc(O)cc2)c2ccccc21,3981,"falling, single point"
CCCc1nc2c3cnn(-c4cccc(Cl)c4)c3ncn2n1,1259,"rising, partial curve"
CN(C)Cc1c[nH]c2ccccc12,1585,"falling, full curve, poor fit"

The results are deposited in PubChem (AID912; NCATS, 2007).